Laboratory results: patent US10622572B2, “Organic thin-film transistor and method for manufacturing the same, material for organic thin-film transistor, composition for organic thin-film transistor, compound, and organic semiconductor film” (FUJIFILM Corporation, priority 2015, dated 2020)

What was measured:
[1] = Carrier mobility, bottom gate-top contact-type element by coating process; conditions: 0.1% by mass anisole solution, −50 V source-drain, gate 20 V to −150 V
[2] = Carrier mobility, bottom gate-bottom contact-type element (drop casting); conditions: drop casting of 0.1% by mass anisole solution, nitrogen atmosphere
[3] = Carrier mobility, bottom gate-bottom contact-type element by ink jet method; conditions: 0.1% by mass tetralin solution
[4] = Carrier mobility, bottom gate-bottom contact-type element by flexo printing method; conditions: 0.5% compound + 0.5% poly α-methylstyrene + 0.05% BYK323 in tetralin
[5] = Carrier mobility, bottom gate-top contact-type element by deposition process; conditions: vacuum deposited film 40 nm

Structure (SMILES) | Carrier mobility [1] | Carrier mobility [2] | Carrier mobility [3] | Carrier mobility [4] | Carrier mobility [5]
CCCCCCc1cc2c(ccc3c2ccc2c4ccc5sc(CCCCCC)cc5c4ccc32)s1 [Comparative compound 1, reference compound] | C (0.05 cm^2/Vs or more to less than 0.1 cm^2//Vs) | D (<0.05 cm^2/Vs) | – | – | –
CC(C)[Si](C#Cc1cc2c(cc(C#C[Si](C(C)C)(C(C)C)C(C)C)c3c4cc(F)sc4ccc23)c2ccc3sc(F)cc3c12)(C(C)C)C(C)C [Compound 3] | A (≥0.5 cm^2/Vs) | A (≥0.5 cm^2/Vs) | A (≥0.5 cm^2/Vs) | A (≥0.5 cm^2/Vs) | A (≥0.5 cm^2/Vs)
CCCCCCc1cc2cc3ccc4c5cc6sc(CCCCCC)cc6cc5ccc4c3cc2s1 [Comparative compound 3, reference compound] | D (<0.05 cm^2/Vs) | D (<0.05 cm^2/Vs) | – | – | –
CC(C)[Si](C#Cc1cc2c(cc(C#C[Si](C(C)C)(C(C)C)C(C)C)c3c2ccc2ccsc23)c2ccc3ccsc3c12)(C(C)C)C(C)C [Compound 2] | A (≥0.5 cm^2/Vs) | A (≥0.5 cm^2/Vs) | A (≥0.5 cm^2/Vs) | A (≥0.5 cm^2/Vs) | A (≥0.5 cm^2/Vs)
CC(C)[Si](C#Cc1cc2c(cc(C#C[Si](C(C)C)(C(C)C)C(C)C)c3c2ccc2cc(F)sc23)c2ccc3cc(F)sc3c12)(C(C)C)C(C)C [Compound 4] | A (≥0.5 cm^2/Vs) | A (≥0.5 cm^2/Vs) | A (≥0.5 cm^2/Vs) | A (≥0.5 cm^2/Vs) | A (≥0.5 cm^2/Vs)
CC(C)[Si](C#Cc1cc2c(cc(C#C[Si](C(C)C)(C(C)C)C(C)C)c3c4ccsc4ccc23)c2ccc3sccc3c12)(C(C)C)C(C)C [Compound 1] | A (≥0.5 cm^2/Vs) | A (≥0.5 cm^2/Vs) | A (≥0.5 cm^2/Vs) | A (≥0.5 cm^2/Vs) | A (≥0.5 cm^2/Vs)
CCCCCCc1cc2ccc3c4ccc5c(ccc6cc(CCCCCC)sc65)c4ccc3c2s1 [Comparative compound 2, reference compound] | C (0.05 cm^2/Vs or more to less than 0.1 cm^2//Vs) | D (<0.05 cm^2/Vs) | – | – | –
